Test results: PMC9204419, “A Toolbox for the Generation of Chemical Probes for Baculovirus IAP Repeat Containing Proteins” (Frontiers in Cell and Developmental Biology, 2022)
The source holds more than one record for some entries. The list is limited to them. An entry can have further records. The values listed for one entry differ for a reason that is not stated; dose, time, organism, isomer or construct need not be as stated for each record.

Sequences of proteins named here, by UniProt entry; tags and fusion partners are left off. Residues count along the entry.
UniProt Q13490, 260-352 limits assumed: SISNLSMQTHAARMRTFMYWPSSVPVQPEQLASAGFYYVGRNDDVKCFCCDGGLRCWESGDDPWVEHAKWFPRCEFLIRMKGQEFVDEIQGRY

Target: BIRC2-BIR3 domain (Homo sapiens, UniProt Q13490)
Experiment: Differential scanning fluorimetry (DSF)
Conditions: difference in melting temperature to DMSO control; 20 μM protein, 40 μM inhibitor; mean ± SD, n = 3

DSF Assay ΔTm: less than 10 °C and 9.1 ± 0.0 °C
SMILES: CN[C@@H](C)C(=O)N[C@H](C(=O)N1CCC[C@H]1C(=O)N[C@H](C(=O)NCCCCCCNC(=O)[C@@H](NC(=O)[C@@H]1CCCN1C(=O)[C@@H](NC(=O)[C@H](C)NC)C1CCCCC1)C(c1ccccc1)c1ccccc1)C(c1ccccc1)c1ccccc1)C1CCCCC1 [BV-6]
